# According to PMC7728077, “Double-Headed Cationic Lipopeptides: An Emerging Class of Antimicrobials” (International Journal of Molecular Sciences, 2020):
# Square brackets hold non-standard residues; d marks the D form. Peptide text beside a SMILES is read from it. * marks the point of attachment. Palmitoyl = CCCCCCCCCCCCCCCC(=O)*; Dab = NCC[C@H](N)C(=O)O
# Key:
# [1] = system: POPG large unilamellar vesicles (LUVs); assay: Isothermal titration calorimetry, binding to POPG; details: ITC, 1.3 mM POPG LUVs titrated into 0.05 or 0.1 mM lipopeptide, PBS, 298.15 K; single transition or first line of two binding events
# Description: (§1) Isothermal titration calorimetry (ITC) experiments were carried out at 298.15 K using an AutoITC isothermal titration calorimeter (MicroCal Inc., GE Healthcare, Northampton, MA, USA) equipped with a 1.4491 mL sample cell and a reference cell. A typical ITC experiment involved a series of consecutive injections of 10.02 µL aliquots of the titrant (2 µL for the first injection only) into the reaction cell, at an interval of 4 min. The stirrer speed was constantly kept at 300 rpm to provide thorough mixing inside the reaction cell. Three types of ITC experiments were performed. These included lipopeptides binding to POPG, POPC, and LPS. The experiments were carried out by titration of 1.3 mM POPG or POPC LUVs into 0.05 or 0.1 mM lipopeptide solutions and the titration of 0.5 or 0.75 mM lipopeptide solution into 200 or 400 µg/mL LPS solution. The molecular mass of LPS was assumed to be 20,000 Da. To assess the heat of dilution, control experiments were performed by titration of an appropriate titrant into PBS. Final results were evaluated with an ITC module for ORIGIN 7 software, provided by MicroCal, Inc. (Northampton, MA, USA). The binding constant, stoichiometry, and enthalpy of interactions were directly determined from ITC experiment by fitting one of the built-in curve fitting models to the experimental data points. Changes in entropy (∆S°) and the Gibbs free energy (∆G°) were calculated from the following equation: ∆G^°=−RTln(55.5Ka)=∆H^°−T∆S^° where 55.5 is the molar concentration of water, R is the gas constant (1.986 cal·mol^−1·K^−1), and T is the absolute temperature.
# [2] = system: lipopolysaccharide (LPS) E. coli 055:B5; assay: Isothermal titration calorimetry, binding to LPS; details: ITC
# Description: as §1
# [3] = two sets of sites model, site 2
smiles,measurement,setting,value
CCCCCCCCCCCCCCCC(=O)NCC[C@H](NC(=O)[C@@H](N)CCCCN)C(=O)N[C@@H](CCCCN)C(N)=O [K(DabC16)K-NH2] (H-Lys-[Dab](Palmitoyl)-Lys-NH2),"n (stoichiometry), POPG",[1],0.73 ± 0.06
CCCCCCCCCCCCCCCC(=O)NCCCC[C@H](NC(=O)[C@@H](N)CCCCN)C(=O)N[C@@H](CCCCN)C(N)=O [K(KC16)K-NH2],"n (stoichiometry), POPG",[1],1.13 ± 0.03
CCCCCCCCCCCCCCCC(=O)NCCC[C@H](NC(=O)[C@@H](N)CCCCN)C(=O)N[C@@H](CCCCN)C(N)=O [K(OC16)K-NH2],"n (stoichiometry), POPG",[1],1.59 ± 0.03
CCCCCCCCCCCCCCCC(=O)NCCCC[C@H](NC(=O)[C@H](CCCCN)NC(=O)[C@@H](N)CCCCN)C(=O)N[C@@H](CCCCN)C(=O)N[C@@H](CCCCN)C(N)=O [KK(KC16)KK-NH2] (H-KKK(Palmitoyl)KK-NH2),"ΔG°, LPS E. coli 055:B5","[2]; calculated, site 1",-12.83 ± 0.40 kcal/mol
same,"ΔG°, LPS E. coli 055:B5","[2]; calculated, site 2",-11.07 ± 0.19 kcal/mol
same,"TΔS°, LPS E. coli 055:B5","[2]; calculated, site 2 (enthalpy-driven)",-2.09 ± 1.43 kcal/mol
same,"ΔH1°, LPS E. coli 055:B5","[2]; two sets of sites model, site 1",-1.96 ± 0.50 kcal/mol
same,"n2 (stoichiometry), LPS E. coli 055:B5",[2]; [3],0.67 ± 0.06
same,"ΔH2°, LPS E. coli 055:B5",[2]; [3],-13.16 ± 1.42 kcal/mol
